Measurements published in patent US20110144056A1, “PYRAZOLE DERIVATIVES USEFUL AS INHIBITORS OF FAAH” (priority 2008, published 2011).

Amino acid sequences for entries named in this document (tags omitted).
UniProt O00519, whole entry: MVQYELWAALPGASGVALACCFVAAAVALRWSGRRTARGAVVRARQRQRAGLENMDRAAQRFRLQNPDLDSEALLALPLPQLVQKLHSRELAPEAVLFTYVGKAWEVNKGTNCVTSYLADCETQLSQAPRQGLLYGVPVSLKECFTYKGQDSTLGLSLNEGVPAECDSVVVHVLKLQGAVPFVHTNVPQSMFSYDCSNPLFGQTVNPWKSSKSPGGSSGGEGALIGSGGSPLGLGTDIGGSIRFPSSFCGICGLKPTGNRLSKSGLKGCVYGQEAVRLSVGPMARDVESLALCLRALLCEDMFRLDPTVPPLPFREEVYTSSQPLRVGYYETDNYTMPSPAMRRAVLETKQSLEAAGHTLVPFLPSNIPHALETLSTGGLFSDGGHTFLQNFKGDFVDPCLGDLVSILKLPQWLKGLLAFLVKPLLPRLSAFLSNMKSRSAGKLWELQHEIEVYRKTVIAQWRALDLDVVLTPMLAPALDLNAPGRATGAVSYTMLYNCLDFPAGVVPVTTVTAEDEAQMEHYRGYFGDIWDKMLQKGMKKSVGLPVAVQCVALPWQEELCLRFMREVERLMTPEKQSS

Columns and labels:
FAAH [1] = biological target: T1, FAAH (Homo sapiens, UniProt O00519); assay: FAAH enzyme assay, lysate of CHO cells expressing human FAAH; settings: read-out: FAAH Human Cell Lysate IC50
From the text: (§1) To assist in assay development stable cell lines for human, murine and rat full length FAAH were developed. Human FAAH cDNA (Accession No: NM_001441.1) was purchased from Origene (Rockville, Md.). The full length FAAH was subcloned into the mammalian expression vector, pcDEF.neo, using XbaI and […] restriction sites and used for stable cell line generation.
CHO cells expressing FAAH were used to prepare either crude cell lysate or microsome fractions. To harvest cells, tissue culture media was decanted, the monolayer washed three times with Ca^++Mg^++ free PBS and cells recovered after 15 min in enzyme free dissociation media (Millipore Corp, Billerica, Mass.). Cells were collected by centrifuging at 2000 rpm for 15 min. and the cell pellet re-suspended with 50 mM HEPES (pH 7.4) containing 1 mM EDTA and the protease inhibitors aprotinin (1 mg/ml) and leupeptin (100 μM). The suspension was sonicated at 4° C. and the cell lysate recovered after centrifuging at 12,000×g (14,600 rpm, SS34 rotor) for 20 min at 4° C. to form a crude pellet of cell debris, nuclei, peroxisomes, lysosomes, and mitochondria; the supernatant or cell lysate was used for FAAH enzyme assay. In some cases, microsomes fractions enriched in FAAH were prepared by centrifuging the cell lysate further at 27,000 rpm (100,000×g) in SW28 rotor for 50 minutes at 4° C. The pellet containing FAAH-enriched microsomes was re-suspend in 50 mM HEPES, (pH 7.4) 1 mM EDTA, and any remaining DNA sheared by passage of material through a 23 gauge needle and aliquots of enzyme were store at −80° C. prior to use.
(American Radiolabeled Chemicals; 1 mCi/ml) with FAAH (Life Sciences (1995), 56, 1999-2005 and Journal of Pharmacology and Experimented Therapeutics (1997), 283, 729-734), Analytical. Biochemistry (2003), 318, 270-5. In addition, routine assays were performed monitoring hydrolysis of arachidonyl-7-amino-4-methylcoumarin amide (AAMCA) by following increase in fluorescence upon release of 7-amino 4-methyl coumarin (λEX=355 nm, (λEM=460 nm). Analytical. Biochemistry (2005). 343, 143-51.
Assays are performed on either cell lysate or microsome fractions prepared as described or in whole cell format employing either the fluorescent substrate AAMCA (Cayman chemical, Ann Arbor, Mich.,) or ^3H-anandmaide ([ETHANOLAMINE-1-3H]American Radiolabeled Chemicals; 1 mCi/ml). The cell lysate or microsome assay is performed in Costar black wall, clear bottom plates by adding FAAH_CHO (whole cell, cell lysate or microsome) in assay buffer (50 mM Phosphate, pH 8.0, 1 mM EDTA, 200 mM KCl, 0.2% glycerol, 0.1% fatty acid free BSA) to each well, followed by either DMSO or compound and allowed to incubate at 22-25° C. for fifteen minutes. AAMCA substrate was used to achieve a final concentration of 1 μM and reaction allowed to proceed at room temperature for 1-3 hours. Fluorescent release as a measure of FAAH activity was monitored by reading the plate in a CytoFluor Multiplate Reader ([…]). Whole cell assay is conducted with cells harvested after rinsing tissue culture flasks three times with Ca^++Mg^++ free PBS, incubating for 10 mm in Enzyme free dissociation media and centrifuging for 5 minutes at 1,000 rpm in table top centrifuge. Cells are resuspended in assay buffer at desired cell number in (4×10^4 cells/assay in 96-well format; 1×10^4 cells/assay in 384-well format) and assayed as described.
Alternatively, assays are performed using anandamide [ethanolamine 1-^3H] (specific activity of 10 Ci/mmol) diluted with cold anandamide to achieve a final assay concentration of 1 μM anandamide (˜50,000 cpm). Enzyme (CHO cell lysate, brain or liver homogenate) is incubated in assay buffer (50 mM Phosphate, pH 8.0, 1 mM EDTA, 200 mM KCl, 0.2% glycerol, 0.1% fatty acid free BSA) with inhibitor at 25° C. for 30 minutes. The reaction was terminated by addition of 2 volumes of chloroform:methanol (1:1) and mixed by vortexing. […]

FAAH [2] = biological target: T1, FAAH; assay: FAAH whole cell assay, CHO cells expressing human FAAH; settings: read-out: FAAH Human Whole Cell IC50
From the text: as §1
Murine (accession number NM_010173) and Rat FAAH (accession number NM_024132) was amplified by reverse transcriptase polymerase chain reaction (RT-PCR) from brain cDNA (BD Biosciences, San Jose, Calif.) using primers 1 and 2 or primers 1 and 3 respectively (see Table). The resulting PCR product was ligated into pCR4TOPO and DNA sequence confirmed. […] Following selection in geneticin, individual clones were selected and FAAH activity was assessed using a whole cell fluorescent anandamide assay, modified from Ramarao et al (2005). […] Release of fluorescence was monitored in a CytoFluor Multiplate Reader. […]
Assays are performed on either cell lysate or microsome fractions prepared as described or in whole cell format employing either the fluorescent substrate AAMCA (Cayman chemical, Ann Arbor, Mich.,) or ^3H-anandmaide ([ETHANOLAMINE-1-3H]American Radiolabeled Chemicals; 1 mCi/ml). […] Fluorescent release as a measure of FAAH activity was monitored by reading the plate in a CytoFluor Multiplate Reader (Ex: 360/40 nM; Em: 460/40 nM). […]

| SMILES | pIC50 (FAAH [1]) | pIC50 (FAAH [2]) |
| --- | --- | --- |
| FC(F)c1ccc2cc(-c3n[nH]cc3Sc3ccc(Cl)cc3)ccc2n1 | 7.06 |  |
| CCOC(=O)c1cnc2cc(-c3n[nH]cc3Sc3ccc(Cl)cc3)ccc2c1 | 8.07 |  |
| CCOC(=O)c1ccc2cc(-c3c(Sc4ccc(Cl)cc4)cnn3C3CCCCO3)ccc2n1 (stereo not shown) |  | 8.44 |
| OCc1cnc2cc(-c3nn(-c4ccc(F)cc4)cc3Sc3ccc(Cl)cc3)ccc2c1 | 8.17 |  |
| CC(=O)N1CCc2cc(-c3nn(C)cc3Sc3ccc(Cl)cc3)ccc2C1 | 7.19 |  |

Second part, the compound after the results:

| pIC50 (FAAH [1]) | pIC50 (FAAH [2]) | SMILES |
| --- | --- | --- |
| 8.72 |  | CCNC(=O)c1ccc2cc(-c3nn(C)cc3Sc3ccc(Cl)cc3)ccc2n1 |
| 8.17 |  | O=C1NCCc2cc(-c3nn(-c4ccc(F)cc4)cc3Sc3ccc(Cl)cc3)ccc21 [Example 308, 6-{4-[(4-chlorophenyl)sulfanyl]-1-(4-fluorophenyl)-1H-pyrazol-3-yl}-3,4-dihydroisoquinolin-1(2H)-one] |
| 8.28 |  | CC(=O)N1CCc2cc(-c3nn(-c4ccccn4)cc3Sc3ccc(Cl)cc3)ccc2C1 |
| 8.29 |  | CCOC(=O)c1cnc2cc(-c3nn(-c4ccc(F)cc4)cc3Sc3ccc(Cl)cc3)ccc2c1 |
| 8.30 |  | CCNC(=O)c1ccc2cc(-c3nn(CC)cc3Sc3ccc(Cl)cc3)ccc2n1 |

pIC50: −log10 of the molar value. The match of structure and compound is tentative.
